Source: PubChem BioAssay AID1487 (National Center for Advancing Translational Sciences (NCATS), 2009)
Where “and” joins values, the source holds several entries; their conditions need not be identical. Identical values can stand only once. Some of the results follow. These are further read-outs of the screen, such as a control signal, another cell line or another target. No call is given for them. The list favours compounds with an active or inconclusive main result. The note in brackets gives the kind of curve behind each potency; many fits are weak.

Experiment: qHTS Assay for Modulators of Lamin A Splicing
Conditions: HeLa LMNA splicing GFP/RFP minigene ratio, 48 h
Outline: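 S3 HeLa stable clones carrying a lamin A-EGFP splicing minigene plus DsRed2 were seeded at 600 cells/well in Opti-MEM with 2% FBS, pin-dosed and incubated 48 h at 37°C. Acumen cytometry (488 nm) gave the GFP/RFP total-intensity ratio.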

[1] = measured here: GFP splicing reporter channel
[2] = measured here: RFP viability control channel

Compound	AC50 [1]	AC50 [2]
Cc1noc(C)c1-c1ccc2ncnc(N(C)C)c2c1	14.1 µM [falling, partial curve]	11.2 µM [falling, partial curve]
COc1cc(SC)ccc1C(=O)NCCOc1c(C)cc(C)cc1C	10 µM [rising, partial curve, poor fit]	
Cc1csc(NC(=O)/C=C/c2ccc3c(c2)OCO3)n1	15.8 µM [rising, partial curve, poor fit]	35.5 µM [rising, single point]
COc1ccc(-c2nc(CCNC(=O)c3cccs3)cs2)cc1	17.8 µM [rising, single point] and 17.8 µM [falling, partial curve, poor fit]	22.4 µM [rising, single point]
COCCNC(=O)COC(=O)C1=Cc2ccccc2OC1	22.4 µM [rising, partial curve]	
Cc1nn(C)c2c1c(-c1ccccc1)cc(=O)n2Cc1ccccc1Cl	2.82 µM [rising, full curve, poor fit]	7.08 µM [rising, partial curve]
S=C1NCCc2ccccc2C1c1ccccc1 (centres undefined)		6.31 µM [rising, partial curve, poor fit]
CC1CCN(S(=O)(=O)c2ccc3c(ccc(=O)n3CC(=O)Nc3ccc(C(C)C)cc3)c2)CC1	0.0562 µM [falling, partial curve, poor fit]	0.02 µM [falling, full curve, poor fit]
Cc1cc(C)c(S(=O)(=O)Nc2ccccc2-c2ccccc2)c(C)c1		35.5 µM [rising, single point]
C[C@H](Cc1ccccc1)Nc1ncnc2c1ncn2[C@@H]1O[C@H](CO)[C@H](O)[C@H]1O	17.8 µM [rising, single point]	
CCCOc1ccc(CCC(=O)O)cc1	0.794 µM [falling, single point]	1.26 µM [falling, single point]
O=S(=O)(Nc1cc(Sc2cccc3cccnc23)c(O)c2ccccc12)c1ccccc1	1.12 µM [falling, full curve]	2 µM [falling, partial curve]
COc1ccc(-c2c[n+](CC(=O)OC3CC(C)CCC3C(C)C)c3n2CCC3)cc1 (centres undefined)		17.8 µM [rising, single point]
N#C/C(=C\c1ccncc1)c1nc2ccccc2c(=O)[nH]1	6.31 µM [falling, partial curve, poor fit]	
CCOc1ccc(C(=O)CCN2CCCCC2)cc1		0.00355 µM [rising, full curve, poor fit]
CCC(C)c1ccc(OCCn2cc(/C=N/NC(=O)CSc3nnc(C)s3)c3ccccc32)cc1 (centres undefined)		12.6 µM [rising, single point]
C[Se]CCC(N)C(=O)O (centres undefined)	3.16 µM [falling, partial curve, poor fit]	
COc1ccc2[nH]c(=O)c(CN(Cc3nnnn3CCc3ccccc3)CC3CCCO3)cc2c1 (centres undefined)		3.55 µM [rising, single point]
Cc1ccc(CSCCNC(=O)c2ccc(C)cc2)cc1	35.5 µM [falling, single point]	

Compound	AC50 [1]	AC50 [2]
COCCCNC(=O)c1oc2c(c1C)-c1nn(Cc3ccc(Cl)cc3)cc1CC2		15.8 µM [rising, single point]
O=C(COc1ccccc1)N1CCN(c2ccccc2)CC1	0.2 µM [rising, full curve, poor fit]	
COC(=O)C1=C(C)N(c2ccc(F)c(Cl)c2)C(=O)C1		11.2 µM [rising, partial curve, poor fit]
O=C1/C(=C/c2ccccc2)N=C(N2CCOCC2)N1c1cccc(Cl)c1		31.6 µM [rising, single point]
CN(C)c1nc(C=C(C#N)C#N)c(Cl)n1-c1ccc(F)cc1	0.631 µM [falling, partial curve]	5.01 µM [falling, full curve]
Cc1ccc(N(C(=O)c2nsc(Cl)c2Cl)C(C(=O)NC2CCCC2)c2ccc(O)cc2)cc1C (centres undefined)		31.6 µM [rising, partial curve]
Cc1ccc(NC(=O)N2CCCC2C(=O)NCC2CCCO2)cc1 (centres undefined)		6.31 µM [falling, full curve]
CCN(CC(=O)NC(C)C)C(=O)CCNC(=O)c1ccc(Cl)cc1	6.31 µM [falling, single point]	
O=C(CSc1nc2nc(-c3cccs3)cc(C(F)(F)F)c2c(=O)[nH]1)Nc1ccc(F)c(F)c1		35.5 µM [rising, single point]
Cc1occc1-c1nnc(SCC(=O)N2CCN(c3ccc(F)cc3)CC2)n1C		25.1 µM [rising, partial curve]
CCOc1ccc(CCNC(=O)Cn2c(=O)c3cccn3c3ccc(F)cc32)cc1OCC	12.6 µM [rising, partial curve, poor fit]	7.94 µM [rising, full curve, poor fit]
Cc1ccc(Cl)cc1-n1ncc2c(NCc3ccc(F)cc3)ncnc21		0.00501 µM [falling, full curve, poor fit]
CCOC(=O)N1CCN(C(=O)C2CCN(S(=O)(=O)c3ccc(F)cc3)CC2)CC1	2.82 µM [rising, single point]	
COc1cc(NC(=S)NCCc2c[nH]c3ccccc23)c(OC)cc1Cl	0.00355 µM [falling, full curve, poor fit]	
O=C(Nc1ccccc1)c1ccccc1O	12.6 µM [rising, single point]	31.6 µM [rising, single point]
COc1ccc(Cc2nnc(NC(=O)C(C)(C)C)s2)cc1	4.47 µM [falling, full curve, poor fit]	
CCOC(=O)CC(=O)CSc1ccc2nnc(-c3cccc(F)c3)n2n1		0.891 µM [rising, partial curve]
O=C(NC1CCCC1)C(c1ccccc1)N(Cc1ccc2c(c1)OCO2)C(=O)Cc1cccs1 (centres undefined)		25.1 µM [rising, single point]
CC(=O)Nc1ccc(NC(=O)c2ccccc2Sc2ccc([N+](=O)[O-])cc2Cl)cc1		12.6 µM [rising, partial curve, poor fit]

Compound	AC50 [1]	AC50 [2]
CC12CCC(C(=O)N3CCC(Cc4ccccc4)CC3)(C(=O)C1=O)C2(C)C (centres undefined)		10 µM [rising, partial curve]
COc1ccc(NC(=O)c2cccnc2SC)cc1OC		1.58 µM [falling, full curve, poor fit]
Cc1onc(-c2c(Cl)cccc2Cl)c1C(=O)N/N=C(\N)COc1ccc(Cl)cc1		5.01 µM [rising, full curve]
CN(C)Cc1nc2c(c(=O)[nH]1)C1(CCCCC1)Cc1ccccc1-2		6.31 µM [falling, partial curve, poor fit]
COc1ccc(OC)c(CNC(=O)CCc2nc(-c3cccs3)no2)c1	5.62 µM [rising, single point]	
CCOCCCNC(=S)N(Cc1ccco1)Cc1cc2cc3c(cc2[nH]c1=O)OCCO3	7.08 µM [falling, partial curve, poor fit]	3.55 µM [falling, partial curve]
COc1cccc(C(=O)Nc2cc(-c3cn4cccnc4n3)ccc2C)c1	6.31 µM [rising, full curve]	7.08 µM [rising, full curve, poor fit]
N#Cc1nc(COc2ccccc2Cl)oc1NCc1ccc(F)cc1	35.5 µM [rising, single point]	31.6 µM [rising, single point]
O=C1C2C3C=CC(C2C(=O)N1c1ccccc1O)C1C2C(=O)N(c4ccccc4O)C(=O)C2C31 (centres undefined)	0.0447 µM [falling, full curve, poor fit]	
C/C(=N\NC(=O)COc1ccccc1)c1cccs1	12.6 µM [rising, single point]	
Cc1ccc2c(=O)oc(N(C)C)nc2c1	0.891 µM [falling, full curve, poor fit]	0.891 µM [falling, full curve]
C=COCCNC(=O)C1CC(=O)N(c2ccc(C)cc2)C1 (centres undefined)		3.98 µM [falling, single point]
Cc1cccc(-c2nnn3c2nc(NCCc2ccc(S(N)(=O)=O)cc2)c2ccccc23)c1		0.0224 µM [rising, full curve, poor fit]
CCOC(=O)Cc1csc(SCC(=O)c2c(N)n(CC(C)C)c(=O)n(C)c2=O)n1	5.01 µM [rising, partial curve]	
COC(=O)c1cc(OC)c(OC)cc1NCC(=O)Nc1ccc(OC)c(OC)c1	22.4 µM [rising, single point]	0.447 µM [rising, single point]
Cc1ccc2c(c1)C=CC(C#N)N2C(=O)c1ccccc1 (centres undefined)	2.51 µM [rising, single point]	3.16 µM [rising, partial curve]
C#C[C@@]1(OC(C)=O)CC[C@@H]2[C@@H]3CCC4=C[C@@H](OC(C)=O)CC[C@H]4[C@H]3CC[C@]21C	14.1 µM [falling, single point]	10 µM [falling, single point]
Cc1cc(Cl)ccc1OCC(=O)N1CCCN(C(=O)COc2ccc(Cl)cc2C)CC1	31.6 µM [rising, single point]	31.6 µM [rising, single point]
